In the supplement of paper PMC6411743:
± gives the standard deviation of the averaged measurements. The entries are a selection whose mix differs from that of the whole data set.

Amino acid sequences for entries named in this document (tags omitted). A change or cut given only in a name is not applied to a line headed by its entry.
UniProt P35227: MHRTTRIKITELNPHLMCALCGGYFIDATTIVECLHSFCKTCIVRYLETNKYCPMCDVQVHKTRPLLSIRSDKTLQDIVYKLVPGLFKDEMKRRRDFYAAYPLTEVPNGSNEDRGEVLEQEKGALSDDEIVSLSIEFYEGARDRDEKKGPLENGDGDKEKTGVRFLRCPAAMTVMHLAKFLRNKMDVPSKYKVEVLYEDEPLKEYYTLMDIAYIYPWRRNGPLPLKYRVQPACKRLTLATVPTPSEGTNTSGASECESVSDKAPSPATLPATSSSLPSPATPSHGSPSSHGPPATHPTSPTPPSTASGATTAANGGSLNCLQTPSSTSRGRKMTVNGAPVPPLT
UniProt Q9Y3E1: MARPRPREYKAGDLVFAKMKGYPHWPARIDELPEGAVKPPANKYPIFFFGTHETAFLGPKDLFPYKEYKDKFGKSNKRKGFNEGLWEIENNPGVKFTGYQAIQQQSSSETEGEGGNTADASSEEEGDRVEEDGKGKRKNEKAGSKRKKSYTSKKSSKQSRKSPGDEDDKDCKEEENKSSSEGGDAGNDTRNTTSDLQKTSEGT
UniProt Q00341: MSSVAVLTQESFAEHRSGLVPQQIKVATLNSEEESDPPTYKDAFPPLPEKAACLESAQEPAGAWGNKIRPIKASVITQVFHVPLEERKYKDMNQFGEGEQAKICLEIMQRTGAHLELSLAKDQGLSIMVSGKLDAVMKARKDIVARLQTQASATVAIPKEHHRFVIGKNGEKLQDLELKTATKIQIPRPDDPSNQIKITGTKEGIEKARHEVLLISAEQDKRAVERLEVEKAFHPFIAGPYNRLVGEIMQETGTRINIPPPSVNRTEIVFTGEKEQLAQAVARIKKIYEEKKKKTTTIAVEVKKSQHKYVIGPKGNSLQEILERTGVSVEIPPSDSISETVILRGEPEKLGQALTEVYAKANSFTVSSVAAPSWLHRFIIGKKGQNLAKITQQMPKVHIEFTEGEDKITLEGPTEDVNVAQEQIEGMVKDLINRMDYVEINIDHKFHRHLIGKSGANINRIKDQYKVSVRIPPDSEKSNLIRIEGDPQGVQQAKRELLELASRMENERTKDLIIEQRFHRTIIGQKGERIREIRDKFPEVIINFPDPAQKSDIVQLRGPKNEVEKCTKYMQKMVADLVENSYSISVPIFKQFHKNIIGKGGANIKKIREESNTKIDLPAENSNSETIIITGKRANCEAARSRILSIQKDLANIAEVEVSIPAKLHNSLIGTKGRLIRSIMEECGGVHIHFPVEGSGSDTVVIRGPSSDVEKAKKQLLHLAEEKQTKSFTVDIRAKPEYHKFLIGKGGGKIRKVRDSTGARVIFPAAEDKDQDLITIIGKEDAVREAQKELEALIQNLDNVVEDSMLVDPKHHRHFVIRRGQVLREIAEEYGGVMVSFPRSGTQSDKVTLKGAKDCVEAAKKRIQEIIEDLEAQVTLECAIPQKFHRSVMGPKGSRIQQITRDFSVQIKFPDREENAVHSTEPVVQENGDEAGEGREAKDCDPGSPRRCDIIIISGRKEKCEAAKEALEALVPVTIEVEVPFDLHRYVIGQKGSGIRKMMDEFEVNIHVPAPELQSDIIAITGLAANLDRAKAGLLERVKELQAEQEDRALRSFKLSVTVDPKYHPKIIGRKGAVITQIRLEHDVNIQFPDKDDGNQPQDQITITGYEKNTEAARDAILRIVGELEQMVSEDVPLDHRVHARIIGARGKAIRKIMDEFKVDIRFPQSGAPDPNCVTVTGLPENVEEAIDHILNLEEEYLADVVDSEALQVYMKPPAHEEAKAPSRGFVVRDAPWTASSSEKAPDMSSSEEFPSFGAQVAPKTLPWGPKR
UniProt Q9BXJ8: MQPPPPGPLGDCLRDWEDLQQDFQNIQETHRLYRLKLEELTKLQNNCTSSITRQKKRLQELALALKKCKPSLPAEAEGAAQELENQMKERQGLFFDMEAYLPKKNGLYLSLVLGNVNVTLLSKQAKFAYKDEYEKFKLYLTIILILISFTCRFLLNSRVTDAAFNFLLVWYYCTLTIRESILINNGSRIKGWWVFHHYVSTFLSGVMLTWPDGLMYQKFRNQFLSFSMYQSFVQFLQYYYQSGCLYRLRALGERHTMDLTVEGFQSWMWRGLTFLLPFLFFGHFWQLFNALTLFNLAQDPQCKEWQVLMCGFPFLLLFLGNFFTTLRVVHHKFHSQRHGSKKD
UniProt Q9BSV6: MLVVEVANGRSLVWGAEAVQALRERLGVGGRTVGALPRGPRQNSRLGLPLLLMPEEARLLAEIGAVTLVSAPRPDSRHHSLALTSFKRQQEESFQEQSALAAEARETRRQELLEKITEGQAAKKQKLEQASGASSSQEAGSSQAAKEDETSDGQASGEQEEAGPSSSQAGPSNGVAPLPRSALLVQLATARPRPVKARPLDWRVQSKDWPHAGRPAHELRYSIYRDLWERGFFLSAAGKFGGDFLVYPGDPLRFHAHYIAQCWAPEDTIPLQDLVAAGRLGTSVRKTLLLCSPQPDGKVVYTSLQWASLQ
UniProt P0C1Z6, whole entry: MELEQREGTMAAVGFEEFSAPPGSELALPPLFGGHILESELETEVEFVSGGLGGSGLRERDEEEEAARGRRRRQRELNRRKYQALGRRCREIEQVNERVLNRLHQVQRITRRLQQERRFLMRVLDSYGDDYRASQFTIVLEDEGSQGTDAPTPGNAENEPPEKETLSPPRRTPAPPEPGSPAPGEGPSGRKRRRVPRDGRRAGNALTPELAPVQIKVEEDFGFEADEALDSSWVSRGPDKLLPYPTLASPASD

Legend:
Assay in all cases: NP40-soluble protein abundance relative to vehicle (solubility fold change) (ratio); higher = more soluble protein in presence of ATP
A0A024R1V6|P35227 = A0A024R1V6|P35227 (UniProt P35227)
In short: (§1)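 Each value is a fold change relative to the detergent-processed vehicle, calculated per replicate from vsn-normalised intensities. Jurkat crude lysate received eight concentrations (0.1 to 10 mM) for 10 min at room temperature and 3 min at 37 °C, then was solubilised in 0.8% NP40 with benzonase (60 min, 4 °C). The ultracentrifuged supernatant was TMT-labelled and run by LC-MS/MS in three independent experiments.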

A0A024R216|Q9Y3E1 = A0A024R216|Q9Y3E1 (UniProt Q9Y3E1)
In short: as §1

A0A024R4E5 = A0A024R4E5 (UniProt Q00341)
In short: as §1

[1] = target: A0A024R4K9|A0A087WZA9|A0A087X266|Q9BXJ8 and related entries (UniProt Q9BXJ8)
In short: as §1

A0A024R4M0|P46781 = A0A024R4M0|P46781 (UniProt P46781)
In short: as §1

[2] = target: A0A024R4N9|A0A0G2JNK5|A9C4B9 and related entries (UniProt Q9BSV6)
In short: as §1

[3] = target: A0A024R4Q5|G5E9B5 and related entries (UniProt P0C1Z6)
In short: as §1

Nc1ncnc2c1ncn2[C@@H]1O[C@H](COP(=O)(O)OP(=O)(O)OP(=O)(O)O)[C@@H](O)[C@H]1O [adenosine triphosphate]
NP40-soluble protein abundance (A0A024R1V6|P35227; concentration: 1mM): 1.06 ± 0.048 | NP40-soluble protein abundance (A0A024R1V6|P35227; concentration: 2mM): 1.11 ± 0.057 | NP40-soluble protein abundance (A0A024R1V6|P35227; concentration: 4mM): 1.21 ± 0.05 | NP40-soluble protein abundance (A0A024R1V6|P35227; concentration: 6mM): 1.16 ± 0.068 | NP40-soluble protein abundance (A0A024R1V6|P35227; concentration: 8mM): 1.32 ± 0.048 | NP40-soluble protein abundance (A0A024R1V6|P35227; concentration: 10mM): 1.28 ± 0.054 | NP40-soluble protein abundance (A0A024R216|Q9Y3E1; concentration: 1mM): 1.03 ± 0.048 | NP40-soluble protein abundance (A0A024R216|Q9Y3E1; concentration: 2mM): 1.06 ± 0.031 | NP40-soluble protein abundance (A0A024R216|Q9Y3E1; concentration: 4mM): 1.01 ± 0.028 | NP40-soluble protein abundance (A0A024R216|Q9Y3E1; concentration: 6mM): 1.109 ± 0.0039 | NP40-soluble protein abundance (A0A024R216|Q9Y3E1; concentration: 8mM): 1 ± 0.038 | NP40-soluble protein abundance (A0A024R216|Q9Y3E1; concentration: 10mM): 1.03 ± 0.053 | NP40-soluble protein abundance (A0A024R4E5; concentration: 1mM): 0.893 ± 0.021 | NP40-soluble protein abundance (A0A024R4E5; concentration: 2mM): 0.891 ± 0.02 | NP40-soluble protein abundance (A0A024R4E5; concentration: 4mM): 0.8973 ± 0.0079 | NP40-soluble protein abundance (A0A024R4E5; concentration: 6mM): 0.925 ± 0.036 | NP40-soluble protein abundance (A0A024R4E5; concentration: 8mM): 0.971 ± 0.026 | NP40-soluble protein abundance (A0A024R4E5; concentration: 10mM): 1.02 ± 0.033 | NP40-soluble protein abundance ([1]; concentration: 1mM): 0.972 ± 0.082 | NP40-soluble protein abundance ([1]; concentration: 2mM): 1.09 ± 0.02 | NP40-soluble protein abundance ([1]; concentration: 4mM): 1.03 ± 0.13 | NP40-soluble protein abundance ([1]; concentration: 6mM): 1.07 ± 0.076 | NP40-soluble protein abundance ([1]; concentration: 8mM): 1.08 ± 0.051 | NP40-soluble protein abundance ([1]; concentration: 10mM): 1.06 ± 0.17 | NP40-soluble protein abundance (A0A024R4M0|P46781; concentration: 1mM): 0.875 ± 0.1 | NP40-soluble protein abundance (A0A024R4M0|P46781; concentration: 2mM): 0.799 ± 0.063 | NP40-soluble protein abundance (A0A024R4M0|P46781; concentration: 4mM): 0.774 ± 0.021 | NP40-soluble protein abundance (A0A024R4M0|P46781; concentration: 6mM): 0.672 ± 0.052 | NP40-soluble protein abundance (A0A024R4M0|P46781; concentration: 8mM): 0.675 ± 0.018 | NP40-soluble protein abundance (A0A024R4M0|P46781; concentration: 10mM): 0.708 ± 0.069 | NP40-soluble protein abundance ([2]; concentration: 1mM): 0.984 ± 0.057 | NP40-soluble protein abundance ([2]; concentration: 2mM): 1 ± 0.039 | NP40-soluble protein abundance ([2]; concentration: 4mM): 0.968 ± 0.02 | NP40-soluble protein abundance ([2]; concentration: 6mM): 0.939 ± 0.065 | NP40-soluble protein abundance ([2]; concentration: 8mM): 0.952 ± 0.092 | NP40-soluble protein abundance ([2]; concentration: 10mM): 1.01 ± 0.044 | NP40-soluble protein abundance ([3]; concentration: 1mM): 1.18 ± 0.077 | NP40-soluble protein abundance ([3]; concentration: 2mM): 1.07 ± 0.022 | NP40-soluble protein abundance ([3]; concentration: 4mM): 1.13 ± 0.025 | NP40-soluble protein abundance ([3]; concentration: 6mM): 1.14 ± 0.089 | NP40-soluble protein abundance ([3]; concentration: 8mM): 1.16 ± 0.078 | NP40-soluble protein abundance ([3]; concentration: 10mM): 1.237 ± 0.0093
